Molecules are shown by their SMILES. This is one part of the list. No stated cut-off is given here; in the data, active = 2-fold of DMSO or more and inactive = the rest. Single values of this set are uncertain. Some low values are a fixed figure set by the source, not a measured ratio.

This assay has as its system CM7/1-hgem mouse ES cell-derived cardiomyocytes. In words: maximal number of mAG-hGem(1/110)-positive cardiomyocytes over 96 h, fold-change vs DMSO; higher = more cardiomyocyte cell cycle activity. As to conditions: 1 µM; 96 (max over 12 h time points) h.
Turning to `CC[C@@H](C(N)=O)N1CCCC1=O`, the maximal number is inactive: 1.
Regarding `NC(=O)C[S+]([O-])C(c1ccccc1)c1ccccc1` (stereo not drawn), the maximal number was inactive: 1.
As to `CC1=C2C(=CO[C@H](C)[C@H]2C)C(O)=C(C(=O)O)C1=O`, the maximal number was inactive: 1.
`CC[C@@]1(O)C[C@H](O[C@H]2C[C@H](N(C)C)[C@H](O)[C@H](C)O2)c2c(cc3c(c2O)C(=O)c2c(O)ccc(O)c2C3=O)[C@H]1C(=O)OC`: the maximal number was inactive: 0.
For `COc1cc2c(cc1O)CCN[C@@H]2C`, the maximal number was inactive: 0.5.
`C[C@]12CC[C@@H]3c4ccc(OC(=O)N(CCCl)CCCl)cc4CC[C@H]3[C@@H]1CC[C@@H]2O`: the maximal number was inactive: 0.
In the case of `N#Cc1nn(-c2c(Cl)cc(C(F)(F)F)cc2Cl)c(N)c1[S+]([O-])C(F)(F)F` (stereo not drawn) it was inactive: 1.
Next, `COc1cc2c(cc1OC)[C@@H]1C(=O)c3ccc4oc(C(C)C)cc4c3O[C@@H]1CO2`: inactive: 1; `CC(O)CN1CCN(CC(=O)[O-])CCN(CC(=O)[O-])CCN(CC(=O)[O-])CC1.[Gd+3]` (stereo not drawn): inactive: 1.
`CCC1(C2=NCCN2)Cc2ccccc2O1` (stereo not drawn): the maximal number was active: 4.
On to `C[C@H]1CC[C@]2(NC1)O[C@H]1C[C@H]3[C@@H]4CC[C@H]5C[C@@H](O[C@@H]6O[C@H](CO)[C@H](O[C@@H]7O[C@H](CO)[C@@H](O)[C@H](O[C@@H]8OC[C@@H](O)[C@H](O)[C@H]8O)[C@H]7O[C@@H]7O[C@H](CO)[C@@H](O)[C@H](O)[C@H]7O)[C@H](O)[C@H]6O)CC[C@]5(C)[C@H]4CC[C@]3(C)[C@H]1[C@@H]2C`, for which the maximal number is inactive: 1.
For the compound `COc1ccc2c(c1)[nH]c1c(C)nccc12`, the maximal number was inactive: 1.
As to `COc1cc2c(cc1OC)[C@@H]1C(=O)c3ccc4c(c3O[C@@H]1CO2)CC(C(C)C)O4` (stereo partly drawn), the maximal number was inactive: 0.5.
Next, `CNc1ccc(C(=O)CC(O)CCC(C)C2OC(=O)CC(O)CC(=O)CC(O)CC(O)CC(O)CC(O)CC3(O)CC(O)C(C(=O)OC)C(CC(O[C@@H]4O[C@H](C)[C@@H](O)[C@H](N)[C@@H]4O)/C=C/C=C/C=C/C=C/C=C/C=C/C=C/C2C)O3)cc1.COC(=O)C1C(O)CC2(O)CC(O)CC(O)CC(O)CC(O)CC(=O)CC(O)CC(=O)OC(C(C)CCC(O)CC(=O)c3ccc(N)cc3)C(C)/C=C/C=C/C=C/C=C/C=C/C=C/C=C/C(O[C@@H]3O[C@H](C)[C@@H](O)[C@H](N)[C@@H]3O)CC1O2` (stereo partly drawn): inactive: 1; `Cc1nnc2n1-c1ccc(Cl)cc1C(c1ccccc1)=NC2`: inactive: 1.
Turning to `C=C(C)[C@@H]1[C@H]2OC(=O)[C@@H]1[C@]1(O)C[C@H]3O[C@]34C(=O)O[C@H]2[C@]14C`, the maximal number is inactive: 1.
With `CC(=O)OCC1=C(C(=O)O)N2C(=O)[C@@H](NC(=O)CCC[C@@H](N)C(=O)O)[C@H]2SC1`, the maximal number was inactive: 1.
As to `C[C@]12CC[C@H]3[C@@H](CC[C@]4(O)C[C@@H](O)CC[C@]34C=O)[C@@]1(O)CC[C@@H]2C1=CC(=O)OC1`, the maximal number was inactive: 0.

The record behind these values is the supplement of paper PMC9549374.
